Consider three molecules from doi:10.1101/609503.

The chains behind the UniProt entries cited, without tags or fusion partners. Residues count along the entry.
UniProt P0AFB1, residues 19-294: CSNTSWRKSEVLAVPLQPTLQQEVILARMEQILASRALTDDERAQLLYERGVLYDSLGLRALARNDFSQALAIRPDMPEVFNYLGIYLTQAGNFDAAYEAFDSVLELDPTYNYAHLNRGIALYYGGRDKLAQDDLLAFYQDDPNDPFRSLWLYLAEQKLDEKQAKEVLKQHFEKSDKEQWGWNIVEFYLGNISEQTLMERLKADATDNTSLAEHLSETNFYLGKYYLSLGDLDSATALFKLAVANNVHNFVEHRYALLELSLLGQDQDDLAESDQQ

These are yes or no findings as the source states them, for the method shown. For part of these data: Tags and fused reporters may be left off the sequences shown.

The target of assay [1] is T1, MepS (E. coli) (UniProt P0AFV4).
T1 sequence (chain, NT647 RED-NHS dye on amines where used as the labelled partner (fl-MepS)): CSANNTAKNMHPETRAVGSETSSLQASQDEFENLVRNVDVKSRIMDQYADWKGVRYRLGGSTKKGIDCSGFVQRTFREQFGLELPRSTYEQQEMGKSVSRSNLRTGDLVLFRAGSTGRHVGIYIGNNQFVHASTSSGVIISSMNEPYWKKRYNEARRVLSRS
As to the kind of experiment: MST.

The target in assay [2] is T2, His-MepS (E. coli) (UniProt P0AFV4).
T2 sequence: T1 sequence (chain, NT647 RED-NHS dye on amines where used as the labelled partner (fl-MepS))
Put plainly: pull-down.

Assay [3] deals with His-tagged NlpI (E. coli) (UniProt P0AFB1). As to the kind of experiment: pull-down.

B1: PBP7 (enzyme, UniProt P0AFI5 26-310)
chain: KTAAATTASQPEIASGSAMIVDLNTNKVIYSNHPDLVRPIASISKLMTAMVVLDARLPLDEKLKVDISQTPEMKGVYSRVRLNSEISRKDMLLLALMSSENRAAASLAHHYPGGYKAFIKAMNAKAKSLGMNNTRFVEPTGLSVHNVSTARDLTKLLIASKQYPLIGQLSTTREDMATFSNPTYTLPFRNTNHLVYRDNWNIQLTKTGFTNAAGHCLVMRTVINNKPVALVVMDAFGKYTHFADASRLRTWIETGKVMPVPAAALSYKKQKAAQMAAAGQTAQND
modifications: NT647 RED-NHS dye on amines where used as the labelled partner (fl-PBP7)
For the molecule B1, in assay [1], the binding result is given as “no binding (tested: 30 μM)”.

B2: PBP7 (untagged ligand in the pull-down with His-MepS) (enzyme, UniProt P0AFI5 26-310)
chain: B1 chain
Take B2: the binding entry in assay [2] is “no binding (tested: 1-2 μM)”.

B3: Tagless PBP5 (enzyme, UniProt P0AEB2 30-403)
chain: DDLNIKTMIPGVPQIDAESYILIDYNSGKVLAEQNADVRRDPASLTKMMTSYVIGQAMKAGKFKETDLVTIGNDAWATGNPVFKGSSLMFLKPGMQVPVSQLIRGINLQSGNDACVAMADFAAGSQDAFVGLMNSYVNALGLKNTHFQTVHGLDADGQYSSARDMALIGQALIRDVPNEYSIYKEKEFTFNGIRQLNRNGLLWDNSLNVDGIKTGHTDKAGYNLVASATEGQMRLISAVMGGRTFKGREAESKKLLTWGFRFFETVNPLKVGKEFASEPVWFGDSDRASLGVDKDVYLTIPRGRMKDLKASYVLNSSELHAPLQKNQVVGTINFQLDGKTIEQRPLVVLQEIPEGNFFGKIIDYIKLMFHHWFG
Consider B3, for which the binding result in assay [3] is “no binding (tested: 1 or 2 μM)”.
